Results are given in words; binding and its absence hold for the method and conditions named. In cells and extracts the contact can be indirect. These calls come from enrichment with a bait or labelling near it, and not all partners need be listed.
Molecular target: PDE4D7-VSV (cAMP-specific 3',5'-cyclic phosphodiesterase 4D isoform 7, VSV-tagged) (human) (UniProt Q08499)
Experiment: affinity purification with mass spectrometry; HEK293 lysate overexpressing PDE4D7-VSV precipitated with VSV-agarose beads (control vector and FLAG-agarose beads as controls); Coomassie-stained bands excised and analysed by mass spectrometry

Protein sequences, listed by entry. Tags and fused reporters are not part of them. Lines headed by an entry give the natural chain unless they say otherwise; changes in a name come on top. Chains listed by the source or under a name are the forms on record and can include a tag or linker.
PDE4D7-VSV (cAMP-specific 3',5'-cyclic phosphodiesterase 4D isoform 7, VSV-tagged) (Q08499, form named): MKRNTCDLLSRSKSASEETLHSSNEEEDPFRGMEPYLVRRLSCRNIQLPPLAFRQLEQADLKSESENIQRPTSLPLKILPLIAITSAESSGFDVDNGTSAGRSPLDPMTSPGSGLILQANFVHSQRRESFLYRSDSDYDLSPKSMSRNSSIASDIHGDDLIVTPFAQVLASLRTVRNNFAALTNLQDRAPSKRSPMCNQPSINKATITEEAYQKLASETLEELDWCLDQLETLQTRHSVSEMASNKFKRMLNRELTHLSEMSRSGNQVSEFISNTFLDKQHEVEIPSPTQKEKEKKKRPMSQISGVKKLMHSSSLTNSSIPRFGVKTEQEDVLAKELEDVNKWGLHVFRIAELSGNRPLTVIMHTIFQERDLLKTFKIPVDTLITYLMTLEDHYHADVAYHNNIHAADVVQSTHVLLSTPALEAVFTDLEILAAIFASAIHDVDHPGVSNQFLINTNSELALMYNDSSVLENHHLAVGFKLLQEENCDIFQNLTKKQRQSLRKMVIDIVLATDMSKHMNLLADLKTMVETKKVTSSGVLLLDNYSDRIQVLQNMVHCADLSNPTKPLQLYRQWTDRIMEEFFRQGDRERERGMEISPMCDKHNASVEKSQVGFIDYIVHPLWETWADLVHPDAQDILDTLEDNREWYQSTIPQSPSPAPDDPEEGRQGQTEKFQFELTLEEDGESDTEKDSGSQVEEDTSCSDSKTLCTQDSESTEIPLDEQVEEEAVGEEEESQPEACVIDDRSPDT
UniProt P11142: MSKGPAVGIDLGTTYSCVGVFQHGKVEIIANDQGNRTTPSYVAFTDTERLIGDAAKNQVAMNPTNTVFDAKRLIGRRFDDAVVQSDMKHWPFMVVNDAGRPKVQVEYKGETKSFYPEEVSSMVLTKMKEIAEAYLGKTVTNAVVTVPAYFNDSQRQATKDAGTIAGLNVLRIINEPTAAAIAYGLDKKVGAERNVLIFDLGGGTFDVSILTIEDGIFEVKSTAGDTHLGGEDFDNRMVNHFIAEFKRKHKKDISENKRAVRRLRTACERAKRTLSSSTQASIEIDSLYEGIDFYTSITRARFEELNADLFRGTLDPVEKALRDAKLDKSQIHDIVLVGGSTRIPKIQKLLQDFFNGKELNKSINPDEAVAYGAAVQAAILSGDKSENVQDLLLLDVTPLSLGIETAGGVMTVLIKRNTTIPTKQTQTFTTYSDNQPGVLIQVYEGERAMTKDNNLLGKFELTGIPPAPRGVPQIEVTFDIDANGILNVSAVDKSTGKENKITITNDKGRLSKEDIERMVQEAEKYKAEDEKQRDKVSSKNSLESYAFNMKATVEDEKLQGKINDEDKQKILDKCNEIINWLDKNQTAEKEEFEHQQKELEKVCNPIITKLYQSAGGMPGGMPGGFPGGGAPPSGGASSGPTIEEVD

endogenous DHX9 (ATP-dependant RNA helicase A) (from UniProt Q08211-1 1-1270)
binding: binds

heat shock cognate 71 kDa protein (HSPA8) (from UniProt P11142 1-646)
binding: binds

B1: octamer-binding protein (NONO) (protein, UniProt Q15233 1-471)
chain: MQSNKTFNLEKQNHTPRKHHQHHHQQQHHQQQQQQPPPPPIPANGQQASSQNEGLTIDLKNFRKPGEKTFTQRSRLFVGNLPPDITEEEMRKLFEKYGKAGEVFIHKDKGFGFIRLETRTLAEIAKVELDNMPLRGKQLRVRFACHSASLTVRNLPQYVSNELLEEAFSVFGQVERAVVIVDDRGRPSGKGIVEFSGKPAARKALDRCSEGSFLLTTFPRPVTVEPMDQLDDEEGLPEKLVIKNQQFHKEREQPPRFAQPGSFEYEYAMRWKALIEMEKQQQDQVDRNIKEAREKLEMEMEAARHEHQVMLMRQDLMRRQEELRRMEELHNQEVQKRKQLELRQEEERRRREEEMRRQQEEMMRRQQEGFKGTFPDAREQEIRMGQMAMGGAMGINNRGAMPPAPVPAGTPAPPGPATMMPDGTLGLTPPTTERFGQAATMEGIGAIGGTPPAFNRAAPGAEFAPNKRRRY
binding: binds

Source: PMC10920091
